{"source": "patent US20210179636A1", "about": "“ANTIBACTERIAL COMPOUNDS” (priority 2016, published 2021)", "key": {"[1]": {"tested_on": "HepG2 ATCC HB-8065", "assay": "Human cell viability assay (CellTiter-Glo)", "format": "cell-based", "settings": "summary of Table 3", "protocol": "Compounds are assessed for potential non-specific cytotoxic effects against a human hepatic cell line (HepG2 ATCC HB-8065). HepG2 cells are seeded at 20,000 cells/well in 96-well microtitre plates in minimal essential medium (MEM) supplemented with a final concentration of 10% FBS and 1 mM sodium pyruvate. After 24 h compound dilutions are prepared in Dulbecco's minimum essential media (DMEM) supplemented with final concentrations of 0.001% FBS, 0.3% bovine albumin and 0.02% HEPES and added to cells. Compounds are tested in two-fold serial dilutions over a final concentration range of 1-128 μg/mL in a final DMSO concentration of 1% vol/vol. Chlorpromazine is used as a positive control. Cells are incubated with compound at 37° C. and 5% CO2 for a further 24 h, after which time the CellTiter-Glo reagent (Promega) is added. Luminescence is measured on a BMG Omega plate reader. Data are analysed using GraphPad Prism software to determine the concentration of compound that inhibits cell viability by fifty percent (IC50)."}, "[2]": {"tested_on": "E. coli MG1655 S83L", "format": "cell-based, Escherichia coli", "settings": "both MG1655 S83L and MG1655 D87G versus parent MG1655"}}, "note": "Some results were stated once for a whole list of compounds, not compound by compound. At least one structure is not confirmed: it was looked up by name or label, or the drawing left a doubt.", "data": [{"smiles": "N#Cc1ccc2ccc(=O)n(CCN3C[C@H]4CN(c5ccc6c(n5)NC(=O)CO6)C(=O)O[C@H]4C3)c2c1", "note": "(relative stereo) [Compound 10, rel-1-{2-[(4aS*,7aR*-2-oxo-3-{3-oxo-2H,3H,4H-pyrido[3,2-b][1,4]oxazin-6-yl}-octahydropyrrolo[3,4-e][1,3]oxazin-6-yl]ethyl}-2-oxo-1,2-dihydroquinoline-7-carbonitrile]", "values": [{"measurement": "toxicity against HepG2 human hepatic cell line (in words)", "setting": "[1]", "value": "low toxicities"}, {"measurement": "loss of activity against the E. coli MG1655 fluoroquinolone-mutant strains", "setting": "[2]", "value": "≤ 2", "unit": "fold"}]}, {"smiles": "N#Cc1ccc2ccc(=O)n(CCN3CC4CN(c5ccc6c(n5)NC(=O)CO6)C(=O)O[C@@H]4C3)c2c1", "note": "(stereo in doubt) [Compound 12, 1-{2-[(4aR,7aS)-2-oxo-3-{3-oxo-2H,3H,4H-pyrido[3,2-b][1,4]oxazin-6-yl}-octahydropyrrolo[3,4-e][1,3]oxazin-6-yl]ethyl}-2-oxo-1,2-dihydroquinoline-7-carbonitrile]", "values": [{"measurement": "loss of activity against the E. coli MG1655 fluoroquinolone-mutant strains", "setting": "[2]", "value": "≤ 2", "unit": "fold"}]}, {"smiles": "N#Cc1ccc2ccc(=O)n(CCN3CC4CN(c5ccc6c(n5)NC(=O)CO6)C(=O)O[C@H]4C3)c2c1", "note": "(stereo in doubt) [Compound 17, 1-{2-[(4aS,7aR)-2-oxo-3-{3-oxo-2H,3H,4H-pyrido[3,2-b][1,4]oxazin-6-yl}-octahydropyrrolo[3,4-e][1,3]oxazin-6-yl]ethyl}-2-oxo-1,2-dihydroquinoline-7-carbonitrile]", "values": [{"measurement": "loss of activity against the E. coli MG1655 fluoroquinolone-mutant strains", "setting": "[2]", "value": "≤ 2", "unit": "fold"}]}]}
